Measured values as given in the supplement of paper PMC10849652.
The list shows a part of the results.

Sequences of proteins named here, by UniProt entry; tags and fusion partners are left off. A change or cut given only in a name is not applied to a line headed by its entry.
UniProt P54619: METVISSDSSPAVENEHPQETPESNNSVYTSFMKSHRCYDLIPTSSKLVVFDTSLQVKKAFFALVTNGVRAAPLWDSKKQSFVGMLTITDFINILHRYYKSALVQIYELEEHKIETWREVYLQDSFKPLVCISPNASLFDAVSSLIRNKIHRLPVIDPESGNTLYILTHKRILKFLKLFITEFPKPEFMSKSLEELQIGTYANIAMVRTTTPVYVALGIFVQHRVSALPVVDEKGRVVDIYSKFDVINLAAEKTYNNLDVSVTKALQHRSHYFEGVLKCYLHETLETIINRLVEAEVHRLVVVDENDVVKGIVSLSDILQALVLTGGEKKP
UniProt Q04759: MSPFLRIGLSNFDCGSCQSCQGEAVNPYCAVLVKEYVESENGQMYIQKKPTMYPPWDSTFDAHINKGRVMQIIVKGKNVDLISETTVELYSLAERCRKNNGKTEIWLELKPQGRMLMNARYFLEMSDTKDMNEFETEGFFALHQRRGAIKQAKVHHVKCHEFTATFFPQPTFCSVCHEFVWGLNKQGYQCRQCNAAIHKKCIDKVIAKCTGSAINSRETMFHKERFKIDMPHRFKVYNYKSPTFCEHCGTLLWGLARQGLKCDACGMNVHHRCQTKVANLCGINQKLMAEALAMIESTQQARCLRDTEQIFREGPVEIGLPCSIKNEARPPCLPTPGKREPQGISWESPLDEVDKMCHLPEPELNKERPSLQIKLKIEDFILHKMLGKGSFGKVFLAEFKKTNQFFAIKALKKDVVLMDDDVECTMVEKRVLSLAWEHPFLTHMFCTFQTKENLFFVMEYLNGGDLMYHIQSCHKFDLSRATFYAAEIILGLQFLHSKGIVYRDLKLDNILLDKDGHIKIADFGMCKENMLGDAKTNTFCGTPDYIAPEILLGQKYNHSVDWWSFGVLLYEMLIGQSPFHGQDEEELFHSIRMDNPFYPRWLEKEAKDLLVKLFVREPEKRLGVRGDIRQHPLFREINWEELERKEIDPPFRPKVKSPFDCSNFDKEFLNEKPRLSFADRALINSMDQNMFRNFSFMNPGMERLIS
UniProt O15355: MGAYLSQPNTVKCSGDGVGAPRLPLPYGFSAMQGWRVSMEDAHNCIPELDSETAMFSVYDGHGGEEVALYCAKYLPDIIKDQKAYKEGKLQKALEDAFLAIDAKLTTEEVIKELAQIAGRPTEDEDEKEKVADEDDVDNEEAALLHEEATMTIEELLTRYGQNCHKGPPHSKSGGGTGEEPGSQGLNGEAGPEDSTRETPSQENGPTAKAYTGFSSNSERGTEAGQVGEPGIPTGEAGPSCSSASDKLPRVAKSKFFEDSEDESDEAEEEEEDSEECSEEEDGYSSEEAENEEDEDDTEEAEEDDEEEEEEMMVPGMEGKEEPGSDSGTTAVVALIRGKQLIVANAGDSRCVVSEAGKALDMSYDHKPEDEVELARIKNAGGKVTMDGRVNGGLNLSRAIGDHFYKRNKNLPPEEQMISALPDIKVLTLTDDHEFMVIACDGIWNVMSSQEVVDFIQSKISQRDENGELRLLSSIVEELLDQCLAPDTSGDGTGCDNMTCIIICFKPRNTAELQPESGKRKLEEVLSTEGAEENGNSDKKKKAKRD
UniProt P05771, whole entry, looked up: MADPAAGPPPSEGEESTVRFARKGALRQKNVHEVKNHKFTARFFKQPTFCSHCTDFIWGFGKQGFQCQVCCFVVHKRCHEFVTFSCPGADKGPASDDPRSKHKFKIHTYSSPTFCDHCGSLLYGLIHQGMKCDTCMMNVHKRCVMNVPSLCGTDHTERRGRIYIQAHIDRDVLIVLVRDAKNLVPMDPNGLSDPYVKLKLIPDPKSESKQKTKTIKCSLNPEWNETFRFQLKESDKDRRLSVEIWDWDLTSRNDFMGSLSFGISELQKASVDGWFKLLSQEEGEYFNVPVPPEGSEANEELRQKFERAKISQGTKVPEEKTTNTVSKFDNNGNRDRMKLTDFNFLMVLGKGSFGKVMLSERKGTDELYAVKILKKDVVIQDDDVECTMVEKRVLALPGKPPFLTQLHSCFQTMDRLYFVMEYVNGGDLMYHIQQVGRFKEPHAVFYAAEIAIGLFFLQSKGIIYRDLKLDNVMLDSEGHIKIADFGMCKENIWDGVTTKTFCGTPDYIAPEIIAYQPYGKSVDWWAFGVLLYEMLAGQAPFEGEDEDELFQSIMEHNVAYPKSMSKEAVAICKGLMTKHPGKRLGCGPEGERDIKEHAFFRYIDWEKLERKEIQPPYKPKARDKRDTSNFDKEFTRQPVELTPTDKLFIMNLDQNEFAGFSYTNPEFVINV
UniProt Q13362, whole entry, looked up: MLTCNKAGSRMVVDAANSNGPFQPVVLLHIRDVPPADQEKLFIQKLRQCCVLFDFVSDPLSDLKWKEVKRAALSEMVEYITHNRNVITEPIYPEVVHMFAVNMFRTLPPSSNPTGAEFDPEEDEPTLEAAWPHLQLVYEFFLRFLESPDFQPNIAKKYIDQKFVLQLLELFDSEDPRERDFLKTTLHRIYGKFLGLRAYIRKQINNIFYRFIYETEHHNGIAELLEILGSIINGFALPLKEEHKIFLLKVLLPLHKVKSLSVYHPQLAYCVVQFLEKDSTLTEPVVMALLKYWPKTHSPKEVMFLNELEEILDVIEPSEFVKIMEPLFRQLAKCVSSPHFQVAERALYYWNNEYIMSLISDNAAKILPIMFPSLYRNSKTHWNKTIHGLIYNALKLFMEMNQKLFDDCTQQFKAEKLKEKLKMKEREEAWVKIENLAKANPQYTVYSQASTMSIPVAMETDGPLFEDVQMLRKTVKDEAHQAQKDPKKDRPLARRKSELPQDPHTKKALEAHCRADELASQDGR
UniProt Q15172: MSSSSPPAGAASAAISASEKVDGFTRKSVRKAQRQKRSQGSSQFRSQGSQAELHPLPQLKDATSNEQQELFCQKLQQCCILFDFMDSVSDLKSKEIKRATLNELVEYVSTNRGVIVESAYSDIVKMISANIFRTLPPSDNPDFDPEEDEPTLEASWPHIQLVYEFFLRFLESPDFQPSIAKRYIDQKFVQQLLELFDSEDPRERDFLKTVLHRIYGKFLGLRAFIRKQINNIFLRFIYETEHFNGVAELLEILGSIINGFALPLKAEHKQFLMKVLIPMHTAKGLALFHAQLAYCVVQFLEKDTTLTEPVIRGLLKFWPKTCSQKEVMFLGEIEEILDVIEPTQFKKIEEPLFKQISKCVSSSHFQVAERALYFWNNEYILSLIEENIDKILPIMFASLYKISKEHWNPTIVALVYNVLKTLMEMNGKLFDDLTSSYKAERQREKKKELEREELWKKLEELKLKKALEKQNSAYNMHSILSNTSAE
UniProt Q13131: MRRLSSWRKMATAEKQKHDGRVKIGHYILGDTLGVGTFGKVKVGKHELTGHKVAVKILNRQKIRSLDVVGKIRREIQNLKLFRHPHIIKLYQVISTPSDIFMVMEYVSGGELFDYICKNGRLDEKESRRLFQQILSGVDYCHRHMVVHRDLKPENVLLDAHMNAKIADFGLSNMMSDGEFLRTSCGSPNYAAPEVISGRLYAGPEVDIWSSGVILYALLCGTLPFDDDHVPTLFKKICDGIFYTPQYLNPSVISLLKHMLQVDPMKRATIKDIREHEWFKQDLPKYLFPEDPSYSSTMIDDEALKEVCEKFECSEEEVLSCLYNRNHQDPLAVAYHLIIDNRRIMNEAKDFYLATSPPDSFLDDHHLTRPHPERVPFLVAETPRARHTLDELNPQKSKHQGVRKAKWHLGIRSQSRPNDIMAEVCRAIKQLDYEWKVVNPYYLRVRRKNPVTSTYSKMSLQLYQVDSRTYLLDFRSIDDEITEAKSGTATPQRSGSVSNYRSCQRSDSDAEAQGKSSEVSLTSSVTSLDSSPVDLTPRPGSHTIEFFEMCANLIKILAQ
UniProt Q8TAP8: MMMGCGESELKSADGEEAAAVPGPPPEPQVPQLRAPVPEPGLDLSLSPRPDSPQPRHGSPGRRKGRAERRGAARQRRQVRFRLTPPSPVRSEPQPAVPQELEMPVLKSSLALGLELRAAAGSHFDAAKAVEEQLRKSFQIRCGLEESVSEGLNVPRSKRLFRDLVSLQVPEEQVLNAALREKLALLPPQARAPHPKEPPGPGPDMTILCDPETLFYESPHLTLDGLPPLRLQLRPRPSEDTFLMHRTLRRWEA
UniProt Q13523: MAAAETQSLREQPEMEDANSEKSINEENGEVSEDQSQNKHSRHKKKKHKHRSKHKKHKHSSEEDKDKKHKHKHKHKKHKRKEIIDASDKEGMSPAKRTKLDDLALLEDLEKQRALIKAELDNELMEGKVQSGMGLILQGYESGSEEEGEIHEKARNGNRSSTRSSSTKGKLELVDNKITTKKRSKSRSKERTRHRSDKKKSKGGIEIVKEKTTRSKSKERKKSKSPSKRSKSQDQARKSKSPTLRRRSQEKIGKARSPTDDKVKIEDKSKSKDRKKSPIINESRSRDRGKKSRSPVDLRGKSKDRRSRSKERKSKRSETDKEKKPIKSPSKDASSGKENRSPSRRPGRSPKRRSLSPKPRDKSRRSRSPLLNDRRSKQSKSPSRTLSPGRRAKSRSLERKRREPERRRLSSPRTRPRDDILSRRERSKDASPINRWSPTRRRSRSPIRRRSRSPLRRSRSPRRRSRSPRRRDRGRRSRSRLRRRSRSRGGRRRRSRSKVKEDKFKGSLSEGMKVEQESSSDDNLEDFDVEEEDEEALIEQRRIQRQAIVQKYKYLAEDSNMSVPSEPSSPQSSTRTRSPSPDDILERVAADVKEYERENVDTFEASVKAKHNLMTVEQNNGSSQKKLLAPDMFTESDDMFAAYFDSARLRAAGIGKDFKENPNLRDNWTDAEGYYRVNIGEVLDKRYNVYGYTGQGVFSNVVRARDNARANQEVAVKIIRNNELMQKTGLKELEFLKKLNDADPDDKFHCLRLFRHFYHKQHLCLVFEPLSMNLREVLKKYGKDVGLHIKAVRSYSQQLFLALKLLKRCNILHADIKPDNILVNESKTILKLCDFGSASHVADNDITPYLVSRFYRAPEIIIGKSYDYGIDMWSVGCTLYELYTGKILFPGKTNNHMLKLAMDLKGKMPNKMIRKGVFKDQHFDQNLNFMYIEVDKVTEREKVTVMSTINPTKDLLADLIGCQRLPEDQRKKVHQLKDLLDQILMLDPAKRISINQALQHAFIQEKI
UniProt P13861, whole entry, looked up: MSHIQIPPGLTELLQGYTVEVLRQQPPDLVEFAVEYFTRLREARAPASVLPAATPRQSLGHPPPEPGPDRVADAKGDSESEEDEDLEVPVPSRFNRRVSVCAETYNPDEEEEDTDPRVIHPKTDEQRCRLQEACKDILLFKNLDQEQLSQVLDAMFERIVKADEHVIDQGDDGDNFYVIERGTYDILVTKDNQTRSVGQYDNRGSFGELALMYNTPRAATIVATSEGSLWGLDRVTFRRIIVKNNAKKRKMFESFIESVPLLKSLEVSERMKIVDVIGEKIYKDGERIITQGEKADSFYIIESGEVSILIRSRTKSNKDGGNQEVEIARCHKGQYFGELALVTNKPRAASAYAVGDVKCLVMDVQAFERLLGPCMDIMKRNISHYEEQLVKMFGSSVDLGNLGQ
UniProt P31321, whole entry, looked up: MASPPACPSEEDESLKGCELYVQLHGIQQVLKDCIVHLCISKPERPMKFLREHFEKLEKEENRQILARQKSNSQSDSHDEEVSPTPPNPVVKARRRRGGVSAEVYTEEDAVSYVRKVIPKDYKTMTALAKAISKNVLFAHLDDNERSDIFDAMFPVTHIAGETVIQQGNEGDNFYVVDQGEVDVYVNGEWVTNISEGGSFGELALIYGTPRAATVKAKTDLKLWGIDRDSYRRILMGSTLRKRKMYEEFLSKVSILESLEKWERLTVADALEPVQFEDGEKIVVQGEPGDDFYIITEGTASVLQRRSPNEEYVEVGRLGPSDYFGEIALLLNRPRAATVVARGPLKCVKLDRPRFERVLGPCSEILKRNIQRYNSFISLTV

What follows are targets tested with Cc1ncc(-c2ccnc(Nc3ccc(S(C)(=O)=O)cc3)n2)n1C(C)C (assay: log2 fold change, soluble protein after heating vs DMSO (PISA); higher = thermal stabilisation; K562 cells, 10 uM, 30 min; active = over 0.2 and 3.5 SD of the protein, either way, in both replicates (recomputed)).
Procedure, shortened: (§1)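 Values are thermal stability changes relative to control samples and are taken from duplicates. They are stated as log2 fold changes. Before quantification by TMTpro 16plex LC-MS/MS with equalised channel sums, K562 cells at 2×10^6 cells/mL were treated with 10 μM compound for 30 min, heated in aliquots for 3 min across 48°C-58°C, pooled, extracted in PBS with 0.5% NP-40 at 4°C, and centrifuged at 21,000xg for 90 min to give the soluble supernatant.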

log2 fold change, inactive:
PPP1CA (UniProt P62136) -0.011, PPP1R14B (UniProt Q96C90) 0.034, PRKAG1 isoform 3 (UniProt P54619) -0.01, PPP6R3 isoform 5 (UniProt Q5H9R7) -0.014, PRKAR2B (UniProt P31323) -0.16, PRPSAP1 isoform 2 (UniProt Q14558) 0.009, PRKCQ (UniProt Q04759) 0.003, PPM1G (UniProt O15355) 0, PRKCB isoform 2 (UniProt P05771) 0.034, PRMT8 (UniProt Q9NR22) 0.02, PPP2R5C isoform 4 (UniProt Q13362) -0.008, PRKCSH (UniProt K7ELL7) 0.028, PRKAB2 (UniProt O43741) 0.082, PRPF18 (UniProt Q99633) -0.024, PRKCA (UniProt P17252) -0.005, PRKDC (UniProt P78527) -0.004, PPP2R5A (UniProt Q15172) 0.006, PPP1R14A (UniProt Q96A00) 0.026, PRKACA (UniProt P17612) -0.051, PRKAA1 isoform 2 (UniProt Q13131) -0.011, PRMT7 (UniProt Q9NVM4) -0.01, PPP1R35 (UniProt Q8TAP8) -0.095, PRPF4B (UniProt Q13523) -0.163, PRKAR2A (UniProt P13861) -0.026, PRSS2 (UniProt P07478) -0.024, PRKAR1B (UniProt P31321) 0.097, PROCR (UniProt Q9UNN8) 0.041, PRKCD (UniProt Q05655) -0.021, PPP1R12A (UniProt O14974) -0.118, PRKRA (UniProt O75569) -0.047, PPP6R1 (UniProt Q9UPN7) -0.008

These targets were tested with Cn1cc(-c2ccc3c(c2)CCN3C(=O)Cc2cccc(C(F)(F)F)c2)c2c(N)ncnc21 in the same assay as above.
Procedure, shortened: as §1

log2 fold change, inactive:
PPP1CA (UniProt P62136) 0.018, PPP1R14B (UniProt Q96C90) 0.236, PRKAG1 isoform 3 (UniProt P54619) 0.001, PPP6R3 isoform 5 (UniProt Q5H9R7) 0.029, PRKAR2B (UniProt P31323) 0.022, PRPSAP1 isoform 2 (UniProt Q14558) -0.021, PRKCQ (UniProt Q04759) 0.069, PPM1G (UniProt O15355) 0.096, PRKCB isoform 2 (UniProt P05771) 0.04, PRMT8 (UniProt Q9NR22) 0.064, PPP2R5C isoform 4 (UniProt Q13362) 0.037, PRKCSH (UniProt K7ELL7) 0.031, PRKAB2 (UniProt O43741) 0.142, PRPF18 (UniProt Q99633) 0.013, PRKCA (UniProt P17252) 0.082, PRKDC (UniProt P78527) 0.036, PPP2R5A (UniProt Q15172) 0.032, PPP1R14A (UniProt Q96A00) 0.076, PRKACA (UniProt P17612) 0.01, PRKAA1 isoform 2 (UniProt Q13131) 0.082, PRMT7 (UniProt Q9NVM4) -0.038, PPP1R35 (UniProt Q8TAP8) -0.024, PRPF4B (UniProt Q13523) 0.005, PRKAR2A (UniProt P13861) 0.07, PRSS2 (UniProt P07478) -0.093, PRKAR1B (UniProt P31321) 0.018, PRADC1 (UniProt Q9BSG0) 0.051, PROCR (UniProt Q9UNN8) -0.01, PRKCD (UniProt Q05655) 0.027, PPP1R12A (UniProt O14974) -0.002, PRKRA (UniProt O75569) -0.241, PPP6R1 (UniProt Q9UPN7) 0.003

These targets were tested with Cn1cc(-c2ccc3nnc(C(F)(F)c4ccc5ncccc5c4)n3n2)cn1 in the same assay as above.
Procedure, shortened: as §1

log2 fold change, inactive:
PPP1CA (UniProt P62136) 0.065, PPP1R14B (UniProt Q96C90) -0.016, PRKAG1 isoform 3 (UniProt P54619) 0.022, PPP6R3 isoform 5 (UniProt Q5H9R7) 0, PRKAR2B (UniProt P31323) -0.07, PRPSAP1 isoform 2 (UniProt Q14558) -0.023, PRKCQ (UniProt Q04759) 0.031, PPM1G (UniProt O15355) 0.117, PRKCB isoform 2 (UniProt P05771) 0, PRMT8 (UniProt Q9NR22) -0.066, PPP2R5C isoform 4 (UniProt Q13362) 0.052, PRKCSH (UniProt K7ELL7) -0.075, PRKAB2 (UniProt O43741) -0.034, PRKCA (UniProt P17252) -0.022, PRKDC (UniProt P78527) 0, PPP2R5A (UniProt Q15172) 0.006, PPP1R14A (UniProt Q96A00) -0.055, PRKACA (UniProt P17612) -0.117, PRKAA1 isoform 2 (UniProt Q13131) 0.028, PRMT7 (UniProt Q9NVM4) 0.124, PPP1R35 (UniProt Q8TAP8) -0.042, PRPF4B (UniProt Q13523) -0.056, PRKAR2A (UniProt P13861) 0.102, PRKAR1B (UniProt P31321) 0.126, PRKCD (UniProt Q05655) 0.102, PPP1R12A (UniProt O14974) 0.02, PRKRA (UniProt O75569) -0.18, PPP6R1 (UniProt Q9UPN7) 0.02
